For 70 targets, melting temperature shift results are on record in the supplement of paper PMC10060354, “Discovery of a small molecule ligand of FRS2 that inhibits invasion and tumor growth” (Cellular Oncology, 2022).

The chains behind the UniProt entries cited, without tags or fusion partners. Where a name states a change or a piece, a line headed by the entry shows the natural chain unless it says otherwise.
UniProt O43156, whole entry: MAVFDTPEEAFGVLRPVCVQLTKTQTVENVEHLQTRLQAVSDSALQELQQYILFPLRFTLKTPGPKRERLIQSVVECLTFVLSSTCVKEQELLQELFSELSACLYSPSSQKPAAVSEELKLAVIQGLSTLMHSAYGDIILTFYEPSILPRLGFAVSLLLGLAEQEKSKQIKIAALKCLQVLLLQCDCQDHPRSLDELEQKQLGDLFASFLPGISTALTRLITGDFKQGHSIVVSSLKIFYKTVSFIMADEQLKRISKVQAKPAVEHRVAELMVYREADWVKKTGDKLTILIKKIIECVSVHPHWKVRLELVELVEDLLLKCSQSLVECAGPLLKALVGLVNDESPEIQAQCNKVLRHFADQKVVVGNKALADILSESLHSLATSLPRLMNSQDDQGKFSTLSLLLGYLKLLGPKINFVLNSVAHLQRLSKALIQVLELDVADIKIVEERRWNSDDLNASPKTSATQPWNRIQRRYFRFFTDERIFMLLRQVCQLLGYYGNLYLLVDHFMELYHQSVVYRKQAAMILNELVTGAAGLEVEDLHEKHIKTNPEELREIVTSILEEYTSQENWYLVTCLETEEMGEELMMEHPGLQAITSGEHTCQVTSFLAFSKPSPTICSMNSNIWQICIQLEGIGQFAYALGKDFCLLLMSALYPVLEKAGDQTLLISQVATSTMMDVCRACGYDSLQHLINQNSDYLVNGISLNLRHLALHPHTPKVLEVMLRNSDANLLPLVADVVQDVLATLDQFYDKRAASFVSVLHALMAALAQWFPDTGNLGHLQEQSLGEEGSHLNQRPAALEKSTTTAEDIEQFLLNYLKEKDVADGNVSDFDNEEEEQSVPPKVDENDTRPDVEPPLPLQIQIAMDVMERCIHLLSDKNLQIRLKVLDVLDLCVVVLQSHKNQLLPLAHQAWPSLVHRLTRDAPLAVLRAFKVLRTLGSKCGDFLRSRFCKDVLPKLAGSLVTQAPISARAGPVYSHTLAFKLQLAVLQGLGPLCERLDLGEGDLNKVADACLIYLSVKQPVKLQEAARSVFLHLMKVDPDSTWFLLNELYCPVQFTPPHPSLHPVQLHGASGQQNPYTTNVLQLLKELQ
UniProt Q70E73: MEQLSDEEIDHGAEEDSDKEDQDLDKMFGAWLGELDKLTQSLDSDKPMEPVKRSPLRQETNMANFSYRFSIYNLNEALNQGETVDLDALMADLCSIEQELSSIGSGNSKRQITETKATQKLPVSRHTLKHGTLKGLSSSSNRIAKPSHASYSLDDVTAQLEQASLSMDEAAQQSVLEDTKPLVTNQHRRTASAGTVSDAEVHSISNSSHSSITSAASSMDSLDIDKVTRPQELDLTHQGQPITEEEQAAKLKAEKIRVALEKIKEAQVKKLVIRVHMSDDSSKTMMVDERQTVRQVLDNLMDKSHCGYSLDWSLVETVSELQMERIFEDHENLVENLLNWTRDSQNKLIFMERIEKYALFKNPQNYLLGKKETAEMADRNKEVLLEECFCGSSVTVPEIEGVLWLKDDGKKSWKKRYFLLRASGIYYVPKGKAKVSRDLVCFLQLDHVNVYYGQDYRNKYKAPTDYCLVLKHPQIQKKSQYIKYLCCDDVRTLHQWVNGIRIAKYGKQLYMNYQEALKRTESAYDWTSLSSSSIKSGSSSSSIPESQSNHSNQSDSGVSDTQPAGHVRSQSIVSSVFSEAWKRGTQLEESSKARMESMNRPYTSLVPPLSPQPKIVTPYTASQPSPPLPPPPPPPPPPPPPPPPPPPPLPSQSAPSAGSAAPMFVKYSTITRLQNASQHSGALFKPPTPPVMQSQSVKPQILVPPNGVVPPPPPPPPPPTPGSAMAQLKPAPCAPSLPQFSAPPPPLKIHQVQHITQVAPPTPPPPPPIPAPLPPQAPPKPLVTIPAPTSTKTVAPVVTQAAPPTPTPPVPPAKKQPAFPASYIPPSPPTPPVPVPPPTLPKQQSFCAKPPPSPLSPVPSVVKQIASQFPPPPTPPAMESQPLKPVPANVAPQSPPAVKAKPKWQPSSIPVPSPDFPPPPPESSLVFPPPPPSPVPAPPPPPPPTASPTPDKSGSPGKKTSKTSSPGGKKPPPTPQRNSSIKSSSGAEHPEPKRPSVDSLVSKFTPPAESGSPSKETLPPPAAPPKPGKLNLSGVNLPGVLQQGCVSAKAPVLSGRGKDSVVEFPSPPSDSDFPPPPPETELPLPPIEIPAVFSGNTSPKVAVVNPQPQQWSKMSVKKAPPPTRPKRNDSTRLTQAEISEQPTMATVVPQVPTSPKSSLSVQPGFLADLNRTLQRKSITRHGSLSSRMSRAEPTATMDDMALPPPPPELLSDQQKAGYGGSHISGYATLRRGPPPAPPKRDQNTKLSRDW
UniProt P36405: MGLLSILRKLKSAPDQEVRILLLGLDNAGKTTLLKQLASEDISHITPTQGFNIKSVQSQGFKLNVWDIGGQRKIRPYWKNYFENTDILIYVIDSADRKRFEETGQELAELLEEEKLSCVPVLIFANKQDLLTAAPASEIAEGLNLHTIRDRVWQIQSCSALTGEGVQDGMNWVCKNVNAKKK
UniProt Q9NNX1: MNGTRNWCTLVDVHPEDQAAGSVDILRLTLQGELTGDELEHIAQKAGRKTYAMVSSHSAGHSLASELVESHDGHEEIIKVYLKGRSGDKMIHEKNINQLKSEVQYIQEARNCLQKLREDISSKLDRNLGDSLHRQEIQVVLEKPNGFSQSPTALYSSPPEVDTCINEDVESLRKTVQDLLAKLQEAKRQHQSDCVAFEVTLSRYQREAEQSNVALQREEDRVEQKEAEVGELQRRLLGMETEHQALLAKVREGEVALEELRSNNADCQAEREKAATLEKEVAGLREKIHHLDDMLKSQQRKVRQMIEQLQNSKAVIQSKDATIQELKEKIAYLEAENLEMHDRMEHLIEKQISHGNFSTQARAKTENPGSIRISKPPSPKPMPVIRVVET
UniProt O14776: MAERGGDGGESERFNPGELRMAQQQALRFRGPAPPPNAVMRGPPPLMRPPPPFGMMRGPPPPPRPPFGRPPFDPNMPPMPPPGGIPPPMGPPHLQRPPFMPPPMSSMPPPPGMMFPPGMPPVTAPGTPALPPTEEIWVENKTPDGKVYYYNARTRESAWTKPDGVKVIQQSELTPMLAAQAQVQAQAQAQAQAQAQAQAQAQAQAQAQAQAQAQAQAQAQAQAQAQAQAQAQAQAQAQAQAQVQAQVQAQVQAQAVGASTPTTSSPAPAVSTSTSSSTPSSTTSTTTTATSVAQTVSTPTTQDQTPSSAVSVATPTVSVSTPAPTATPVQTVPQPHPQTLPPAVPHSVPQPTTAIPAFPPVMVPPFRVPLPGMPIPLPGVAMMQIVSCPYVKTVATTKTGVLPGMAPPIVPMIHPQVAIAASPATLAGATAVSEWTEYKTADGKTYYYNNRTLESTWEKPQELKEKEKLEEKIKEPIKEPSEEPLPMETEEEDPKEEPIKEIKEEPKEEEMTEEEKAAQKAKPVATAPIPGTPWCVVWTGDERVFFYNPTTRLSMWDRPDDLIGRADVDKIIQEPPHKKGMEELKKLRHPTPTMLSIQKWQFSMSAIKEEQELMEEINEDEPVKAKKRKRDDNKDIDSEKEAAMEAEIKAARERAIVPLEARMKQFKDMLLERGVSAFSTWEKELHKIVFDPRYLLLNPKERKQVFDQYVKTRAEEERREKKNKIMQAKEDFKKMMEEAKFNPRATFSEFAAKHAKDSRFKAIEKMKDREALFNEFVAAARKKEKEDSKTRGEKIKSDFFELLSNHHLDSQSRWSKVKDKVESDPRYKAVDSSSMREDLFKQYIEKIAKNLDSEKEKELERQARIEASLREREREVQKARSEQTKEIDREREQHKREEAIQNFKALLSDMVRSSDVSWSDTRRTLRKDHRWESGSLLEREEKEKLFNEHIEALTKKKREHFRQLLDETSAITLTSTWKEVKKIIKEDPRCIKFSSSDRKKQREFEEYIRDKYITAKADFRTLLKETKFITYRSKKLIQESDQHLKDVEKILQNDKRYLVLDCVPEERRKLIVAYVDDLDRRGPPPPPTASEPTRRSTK
UniProt Q13247: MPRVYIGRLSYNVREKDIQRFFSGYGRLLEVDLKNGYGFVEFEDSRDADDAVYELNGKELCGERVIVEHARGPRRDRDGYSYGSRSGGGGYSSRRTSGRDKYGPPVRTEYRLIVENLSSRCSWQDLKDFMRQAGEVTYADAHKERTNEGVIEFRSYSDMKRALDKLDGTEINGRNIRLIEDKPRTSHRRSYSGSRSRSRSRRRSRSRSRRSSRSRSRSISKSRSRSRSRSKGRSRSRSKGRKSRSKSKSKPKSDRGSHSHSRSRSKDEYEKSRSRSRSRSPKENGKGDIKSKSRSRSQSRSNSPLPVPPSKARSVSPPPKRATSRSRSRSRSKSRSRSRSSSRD
UniProt Q99797: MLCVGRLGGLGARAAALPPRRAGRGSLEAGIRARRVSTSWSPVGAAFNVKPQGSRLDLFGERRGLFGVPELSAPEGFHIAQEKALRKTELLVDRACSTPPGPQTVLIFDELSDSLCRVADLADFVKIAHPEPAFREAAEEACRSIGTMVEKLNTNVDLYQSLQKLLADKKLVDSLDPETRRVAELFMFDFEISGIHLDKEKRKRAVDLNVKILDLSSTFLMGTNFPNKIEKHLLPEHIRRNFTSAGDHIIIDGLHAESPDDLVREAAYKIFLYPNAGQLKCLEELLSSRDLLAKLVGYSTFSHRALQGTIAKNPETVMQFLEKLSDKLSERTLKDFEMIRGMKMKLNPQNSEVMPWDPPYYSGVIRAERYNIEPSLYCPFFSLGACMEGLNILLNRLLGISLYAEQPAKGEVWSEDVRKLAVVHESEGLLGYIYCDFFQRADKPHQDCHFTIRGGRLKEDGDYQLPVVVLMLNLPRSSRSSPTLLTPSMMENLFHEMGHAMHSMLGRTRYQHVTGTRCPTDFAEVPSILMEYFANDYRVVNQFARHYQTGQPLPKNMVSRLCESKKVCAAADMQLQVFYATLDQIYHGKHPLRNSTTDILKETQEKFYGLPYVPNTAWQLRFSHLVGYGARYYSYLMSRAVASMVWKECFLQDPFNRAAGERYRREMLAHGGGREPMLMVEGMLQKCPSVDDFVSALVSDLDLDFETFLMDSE
UniProt Q9BXN6: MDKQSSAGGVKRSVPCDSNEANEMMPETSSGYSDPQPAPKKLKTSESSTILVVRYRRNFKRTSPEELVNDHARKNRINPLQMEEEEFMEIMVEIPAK
UniProt Q6P158: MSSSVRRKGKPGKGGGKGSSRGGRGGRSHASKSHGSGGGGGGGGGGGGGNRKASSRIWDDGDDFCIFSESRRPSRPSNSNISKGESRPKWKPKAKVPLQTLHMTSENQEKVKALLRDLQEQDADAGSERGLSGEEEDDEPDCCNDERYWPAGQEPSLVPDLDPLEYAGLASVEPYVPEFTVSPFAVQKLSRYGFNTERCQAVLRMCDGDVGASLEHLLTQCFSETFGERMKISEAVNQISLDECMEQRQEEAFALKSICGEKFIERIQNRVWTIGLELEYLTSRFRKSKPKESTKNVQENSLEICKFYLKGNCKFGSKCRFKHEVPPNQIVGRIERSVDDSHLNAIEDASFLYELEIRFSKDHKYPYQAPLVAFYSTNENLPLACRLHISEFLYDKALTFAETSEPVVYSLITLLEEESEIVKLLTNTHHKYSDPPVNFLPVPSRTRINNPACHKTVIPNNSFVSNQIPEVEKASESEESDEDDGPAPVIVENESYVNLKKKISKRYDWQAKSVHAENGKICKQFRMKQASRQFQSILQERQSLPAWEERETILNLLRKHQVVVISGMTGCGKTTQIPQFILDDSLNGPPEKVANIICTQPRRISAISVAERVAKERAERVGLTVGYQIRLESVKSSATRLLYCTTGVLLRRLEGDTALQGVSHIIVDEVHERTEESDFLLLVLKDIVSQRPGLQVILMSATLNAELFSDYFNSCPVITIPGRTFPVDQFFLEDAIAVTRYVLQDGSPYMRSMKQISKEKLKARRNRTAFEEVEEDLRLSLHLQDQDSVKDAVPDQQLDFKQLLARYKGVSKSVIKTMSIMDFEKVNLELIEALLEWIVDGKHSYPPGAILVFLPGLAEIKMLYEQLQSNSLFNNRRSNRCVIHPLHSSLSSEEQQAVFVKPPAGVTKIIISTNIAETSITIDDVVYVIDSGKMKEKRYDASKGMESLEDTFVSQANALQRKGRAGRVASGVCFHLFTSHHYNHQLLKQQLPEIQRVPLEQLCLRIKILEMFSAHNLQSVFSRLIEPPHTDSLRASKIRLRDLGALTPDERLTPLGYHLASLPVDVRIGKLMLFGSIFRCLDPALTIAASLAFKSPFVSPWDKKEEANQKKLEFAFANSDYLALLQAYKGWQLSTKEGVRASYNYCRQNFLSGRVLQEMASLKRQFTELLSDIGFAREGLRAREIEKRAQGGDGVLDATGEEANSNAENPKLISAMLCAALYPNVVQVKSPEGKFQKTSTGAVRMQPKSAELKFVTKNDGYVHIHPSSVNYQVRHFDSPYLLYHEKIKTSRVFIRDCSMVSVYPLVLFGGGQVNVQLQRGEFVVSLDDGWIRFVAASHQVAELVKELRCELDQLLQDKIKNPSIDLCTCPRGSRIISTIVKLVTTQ

Single values are uncertain, as repeats are few or missing.

Compound in this test: [O-][N+](C(C1=C(C(O)=C2)NC(C(C=C3)=CC=C3Cl)C4C1C=CC4)=C2Cl)=O
Description: melting temperature shift (compound 7 minus DMSO); higher = compound stabilises the protein. To be noted: 10 µM. How it is done: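 Thermal proteome profiling (TMT mass spectrometry) in intact DAOY medulloblastoma cells or DAOY lysates treated with 10 µM compound 7 or DMSO, heated at 10 temperatures from 40.5 to 73.8 °C for 3 min. Melting curves were fitted with the Bioconductor TPP package, and the melting point difference between compound and vehicle is reported per protein (single curve per condition).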

[1] abbreviates: system: DAOY cell lysate, treatment time: 20 min, 4 °C.
Setting [2] is: system: intact DAOY cells, treatment time: 90 min, 37 °C.

As for ITGA1 (UniProt P56199), the melting temperature shift under setting [1] turned out to be 2.29 °C.
Consider OGFOD1 (UniProt Q8N543), for which the melting temperature shift was -0.773 °C under setting [1] and -0.204 °C under setting [2].
The corresponding values for UniProt Q12962 are -1.91 °C and -0.793 °C.
For IARS (UniProt P41252), the melting temperature shift runs as follows: under setting [1], -1.09 °C; under setting [2], -0.65 °C.
Regarding SLC44A1 (UniProt Q8WWI5), the melting temperature shift under setting [1] was 1.78 °C.
Take UniProt Q86UB9: the melting temperature shift under setting [2] was found to be 4.61 °C.
As for BRI3BP (UniProt Q8WY22), the melting temperature shift under setting [1] is -0.101 °C.
For UniProt Q8N131, the melting temperature shift by setting is: under setting [1], 2.41 °C; under setting [2], 0.487 °C.
In the case of POLR2B (UniProt P30876), the melting temperature shift by setting is: under setting [1], -0.852 °C; under setting [2], 0.538 °C.
On the same counts, the results for MRPL41 (UniProt Q8IXM3) are -0.774 °C and -0.378 °C.
On the same counts, the results for TTI1 (UniProt O43156) are -1.74 °C and -0.25 °C.
For RAPH1 (UniProt Q70E73), the melting temperature shift under setting [1] is -0.678 °C.
As for BLVRB (UniProt P30043), the melting temperature shift by setting is: under setting [1], -1.09 °C; under setting [2], 0.0687 °C.
In the case of UCK2 (UniProt Q9BZX2), the melting temperature shift runs as follows: under setting [1], -0.529 °C; under setting [2], -1.1 °C.
The corresponding values for HACL1 (UniProt Q9UJ83) are 1.86 °C and -0.335 °C.
The corresponding values for DDX46 (UniProt Q7L014) are -0.618 °C and -0.902 °C.
On the same counts, the results for ARL3 (UniProt P36405) are -2.57 °C and -0.915 °C.
For the target KIF15 (UniProt Q9NS87), the melting temperature shift under setting [1] was -1.6 °C and the melting temperature shift under setting [2] is -0.0155 °C.
The corresponding values for BAG5 (UniProt Q9UL15) are -0.655 °C and 0.123 °C.
The corresponding values for UBE2T (UniProt Q9NPD8) are -0.122 °C and -0.658 °C.
On the same counts, the results for EDIL3 (UniProt O43854) are 1.2 °C and 3.13 °C.
MPDZ (UniProt O75970): the melting temperature shift under setting [1] is -1.54 °C and the melting temperature shift under setting [2] was 0.683 °C.
The corresponding values for NUP160 (UniProt Q12769) are -0.331 °C and -1.19 °C.
Take UniProt Q9NNX1: the melting temperature shift under setting [1] is -0.04 °C.
For the target TCERG1 (UniProt O14776), the melting temperature shift under setting [1] is -0.0869 °C and the melting temperature shift under setting [2] is -0.308 °C.
Take MAD1L1 (UniProt Q9Y6D9): the melting temperature shift is -1.06 °C under setting [1] and 0.0257 °C under setting [2].
For PELP1 (UniProt Q8IZL8), the melting temperature shift by setting is: under setting [1], -0.116 °C; under setting [2], 0.0634 °C.
Turning to MICALL2 (UniProt Q8IY33), under setting [1], the melting temperature shift was -2.98 °C.
Turning to AMPD2 (UniProt Q01433), the melting temperature shift reads like this: under setting [1], -0.93 °C; under setting [2], 0.11 °C.
UniProt Q15012: the melting temperature shift under setting [1] is 1.57 °C.
With MTERF3 (UniProt Q96E29), the melting temperature shift under setting [2] came to 1.59 °C.
Turning to ELMO2 (UniProt Q96JJ3), the melting temperature shift was -0.0123 °C under setting [1] and -0.689 °C under setting [2].
The corresponding values for SRSF6 (UniProt Q13247) are 0.35 °C and 0.569 °C.
CLIP1 (UniProt P30622): the melting temperature shift under setting [1] was -0.367 °C.
Regarding TJP1 (UniProt Q07157), the melting temperature shift is 0.35 °C under setting [1] and -0.294 °C under setting [2].
RPS19BP1 (UniProt Q86WX3): the melting temperature shift runs as follows: under setting [1], 1.35 °C; under setting [2], -1.55 °C.
Regarding MIPEP (UniProt Q99797), the melting temperature shift under setting [1] was determined as 1.17 °C and the melting temperature shift under setting [2] is -0.493 °C.
On the same counts, the results for AP1S1 (UniProt P61966) are 0.196 °C and -0.181 °C.
On the same counts, the results for UniProt P23141 are 0.208 °C and 3.15 °C.
In the case of ALDH9A1 (UniProt P49189), the melting temperature shift reads like this: under setting [1], -0.351 °C; under setting [2], 0.394 °C.
Regarding UniProt P54253, the melting temperature shift under setting [1] was -0.00623 °C.
On the same count and under the same terms, the same measure for DNAJC25 (UniProt Q9H1X3): 0.601 °C.
As to UniProt Q9BXN6, under setting [2], the melting temperature shift was 2.37 °C.
The same measure, in the same setting: with UniProt Q4VXU2 the figure was -0.247 °C.
With UniProt Q13427, the melting temperature shift is 0.972 °C under setting [1] and -0.845 °C under setting [2].
For the target GAPDH (UniProt P04406), the melting temperature shift was -1.17 °C under setting [1] and -0.593 °C under setting [2].
For UniProt Q9GZM8, the melting temperature shift under setting [2] was -0.152 °C.
As for UniProt Q6NXR0, under setting [1], the melting temperature shift is -1.96 °C.
Turning to SRRM2 (UniProt Q9UQ35), the melting temperature shift is, setting by setting: under setting [1], 0.567 °C; under setting [2], -1.02 °C.
Turning to DDX41 (UniProt Q9UJV9), the melting temperature shift under setting [1] is 0.118 °C.
Consider VBP1 (UniProt P61758), for which the melting temperature shift is -0.855 °C under setting [1] and 0.0431 °C under setting [2].
For RUFY1 (UniProt Q96T51), the melting temperature shift runs as follows: under setting [1], -0.272 °C; under setting [2], 0.248 °C.
For WNK2 (UniProt Q9Y3S1), under setting [2], the melting temperature shift was 0.347 °C.
Regarding PRPF4 (UniProt O43172), the melting temperature shift under setting [1] is -0.0962 °C and the melting temperature shift under setting [2] was -0.554 °C.
On the same counts, the results for EIF2B4 (UniProt Q9UI10) are 0.295 °C and -1.23 °C.
As to ALG13 (UniProt Q9NP73), the melting temperature shift under setting [1] turned out to be 0.665 °C.
In the case of ANAPC10 (UniProt Q9UM13), the melting temperature shift is 0.0443 °C under setting [1] and -0.416 °C under setting [2].
For the target UniProt P13637, the melting temperature shift under setting [2] is -0.357 °C.
Consider ATP6V1H (UniProt Q9UI12), for which the melting temperature shift is -0.965 °C under setting [1] and 0.552 °C under setting [2].
For the target MAT2B (UniProt Q9NZL9), the melting temperature shift under setting [1] was -0.495 °C and the melting temperature shift under setting [2] was -1.12 °C.
UniProt P21108: under setting [2], the melting temperature shift is -0.014 °C.
Consider TPP1 (UniProt O14773), for which the melting temperature shift under setting [1] came to 1.01 °C.
With UniProt O60229, the melting temperature shift under setting [2] was -0.725 °C.
In the case of UniProt O14602, the melting temperature shift under setting [2] is -0.387 °C.
Same read-out and setting: the same measure for UniProt Q9C0D9: -0.994 °C.
For the target UniProt Q96JI7, the melting temperature shift by setting is: under setting [1], -0.717 °C; under setting [2], -1.41 °C.
TNS2 (UniProt Q63HR2): the melting temperature shift under setting [2] came out at 0.13 °C.
Still for that read-out and setting: the same measure for UniProt Q9H672: 0.697 °C.
With HADHB (UniProt P55084), the melting temperature shift reads like this: under setting [1], 0.858 °C; under setting [2], 0.314 °C.
In the case of DHX57 (UniProt Q6P158), the melting temperature shift is -0.477 °C under setting [1] and 0.471 °C under setting [2].
